Values from PubChem BioAssay AID686943 (Drosophila RNAi Screening Center, 2013)
The deposit covers about 23,000 reagents; shown is an unselected part of those that have a named target and a result. 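Extra replicates exist only for a retested subset of genes; insulin dose and duration not given; both raised and lowered dpERK matter.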 A plus sign joins genes that one reagent is predicted to hit. Further read-outs or replicates are left out here. Not given: the amount of reagent, the time to read-out.

Aim: 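Fly genes whose loss alters ERK activation after insulin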 (primary screen)
System: Drosophila S2R+ haemocyte-like cells expressing YFP-tagged ERK (Rolled)
Reagents: long dsRNA against Drosophila genes
Conditions: insulin stimulation versus unstimulated cells; dose and duration not given
Detection: 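Antibody staining for doubly phosphorylated ERK divided by ERK-YFP signal, as plate z-scores, in insulin-treated and untreated cells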
Scale: replicate 1, z-score of dpERK with insulin and replicate 2, z-score of dpERK with insulin: higher = more active ERK per ERK-YFP after insulin; replicate 1, z-score of dpERK under basal conditions: higher = more basal active ERK per ERK-YFP

predicted target | dsRNA | replicate 1, z-score of dpERK with insulin | replicate 2, z-score of dpERK with insulin | replicate 1, z-score of dpERK under basal conditions
Ccdc39 | DRSC12286 | -0.18 | -0.31 | 0.73
stnB + stnA | DRSC20969 | 0.79 | 1.78 | -0.55
stnB + stnA | DRSC21112 | 0.32 | 0.34 | -0.95
stnB + stnA | DRSC21113 | -0.65 | 0.37 | -0.46
app | DRSC09159 | -0.12 | -0.81 | -0.04
app | DRSC10246 | 0.3 | 0.65 | -0.71
app | DRSC10526 | -0.38 | -0.27 | 0.36
CG11356 | DRSC19401 | 0.08 | 0.33 | -0.6
CG7881 | DRSC04898 | -0.85 | 0.5 | -0.05
CG3769 | DRSC02723 | 0.77 | 0.18 | 0.68
mei-38 | DRSC18564 | -0.53 | -1.17 | 0.52
PIG-H | DRSC14856 | -0.04 | 0.06 | 0.35
Khc | DRSC07448 | -0.7 | -0.43 | -0.16
CG15043 | DRSC19619 | 0.15 | -0.17 | 0.4
kek1 | DRSC03551 | -0.32 | -0.02 | 1.43
TwdlS | DRSC14737 | -0.11 | -0.17 | 0.75
CG12817 | DRSC14555 | 0.71 | 0.49 | -0.07
CG7856 | DRSC04896 | 1.01 | 0.24 | 0.13
CG42254 (retired record) | DRSC06194 | 0.07 | 0.33 | -0.42
Muc11A | DRSC19498 | 0.17 | 1.13 | 0.64
Acbp3 | DRSC11022 | -1.01 | 0.04 | -0.27
Sobp | DRSC07312 | 0.25 | 0.21 | 0.08
CG46298 | DRSC06222 | 0.35 | 1.26 | 0.4
brp | DRSC06245 | 0.01 | 0.09 | -0.12
brp | DRSC06246 | -0.66 | -0.36 | 0.81
brp | DRSC06801 | 0.75 | 0.54 | 0.47
brp | DRSC21893 | 1.41 | 1.03 | 0.81
CG32755 | DRSC18397 | 0.15 | 0.13 | -0.08
Noc2 | DRSC03165 | 0.17 | 0.02 | -2.5
CG33514 | DRSC08471 | -0.22 | -1.02 | -0.04
CG33514 | DRSC08472 | 0.59 | -0.45 | -0.32
CG33514 | DRSC21670 | 0.52 | -0.14 | -0.7
Lrrk | DRSC15816 | 1.08 | 0.58 | 0
Lrrk | DRSC21971 | -0.04 | -0.82 | 1.44
CG9743 | DRSC16552 | -1.05 | 0 | 1.17
Ae2 | DRSC08997 | -2.68 | -0.3 | -0.67
Ae2 | DRSC10969 | -0.09 | 2.06 | -0.07
CG11975 | DRSC14452 | 0.14 | -0.17 | -0.24
Dpit47 | DRSC04985 | -2.6 | -0.21 | -1.63
